Experimental data taken from PMC9073595, “Synthesis, human topoisomerase IIα inhibitory properties and molecular modeling studies of anti-proliferative curcumin mimics” (RSC Advances, 2019).

Experiments:
Format in all cases: cell-based, human
[1] = tested on: HCT116 (colon) carcinoma cell line; experiment: MTT anti-proliferative assay, HCT116; conditions: IC50 in normal cell (RPE1)/IC50 in cancer cell (HCT116)
[2] = tested on: MCF7 (breast) carcinoma cell line; experiment: MTT anti-proliferative assay, MCF7; conditions: IC50 in normal cell (RPE1)/IC50 in cancer cell (MCF7)
[3] = tested on: A431 (squamous skin) carcinoma cell line; experiment: MTT anti-proliferative assay, A431; conditions: IC50 in normal cell (RPE1)/IC50 in cancer cell (A431)

Structure (SMILES)	therapeutic index, HCT116 [1]	therapeutic index, MCF7 [2]	therapeutic index, A431 [3]
O=C1/C(=C/c2ccccc2)CN(C(=O)Nc2ccccc2)C/C1=C\c1ccccc1 [Compound 24, 3,5-Di[(E)-benzylidene]-4-oxo-N-phenylpiperidine-1-carboxamide]	15.40	9.09	6.68
O=C1/C(=C/c2ccccc2)CN(C(=O)Nc2ccc(Cl)cc2)C/C1=C\c1ccccc1 [Compound 25, 3,5-Di[(E)-benzylidene]-N-(4-chlorophenyl)-4-oxopiperidine-1-carboxamide]	21.43	10.56	8.79
COc1ccc(NC(=O)N2C/C(=C\c3ccccc3)C(=O)/C(=C/c3ccccc3)C2)cc1 [Compound 26, 3,5-Di[(E)-benzylidene]-N-(4-methoxyphenyl)-4-oxopiperidine-1-carboxamide]	12.39	7.15	6.26
O=C1/C(=C/c2ccccc2)CN(C(=O)NCc2ccccc2)C/C1=C\c1ccccc1 [Compound 28, N-Benzyl-3,5-di[(E)-benzylidene]-4-oxopiperidine-1-carboxamide]	9.13	4.64	4.64
O=C1/C(=C/c2ccc(Cl)cc2)CN(C(=O)Nc2ccccc2)C/C1=C\c1ccc(Cl)cc1 [Compound 29, 3,5-Bis[(E)-4-chlorobenzylidene]-4-oxo-N-phenylpiperidine-1-carboxamide]	13.81	7.27	7.50
O=C1/C(=C/c2ccc(Cl)cc2)CN(C(=O)Nc2ccc(Cl)cc2)C/C1=C\c1ccc(Cl)cc1 [Compound 30, 3,5-Bis[(E)-4-chlorobenzylidene]-N-(4-chlorophenyl)-4-oxopiperidine-1-carboxamide]	8.43	4.33	7.64
COc1ccc(NC(=O)N2C/C(=C\c3ccc(Cl)cc3)C(=O)/C(=C/c3ccc(Cl)cc3)C2)cc1 [Compound 31, 3,5-Bis[(E)-4-chlorobenzylidene]-N-(4-methoxyphenyl)-4-oxopiperidine-1-carboxamide]	7.28	5.21	6.05
CCNC(=O)N1C/C(=C\c2ccc(Cl)cc2)C(=O)/C(=C/c2ccc(Cl)cc2)C1 [Compound 32, 3,5-Bis[(E)-4-chlorobenzylidene]-N-ethyl-4-oxopiperidine-1-carboxamide]	11.61	5.14	9.21
O=C1/C(=C/c2ccc(Cl)cc2)CN(C(=O)NCc2ccccc2)C/C1=C\c1ccc(Cl)cc1 [Compound 33, N-Benzyl-3,5-bis[(E)-4-chlorobenzylidene]-4-oxopiperidine-1-carboxamide]	10.10	5.33	7.87
O=C1/C(=C/c2ccc(F)cc2)CN(C(=O)Nc2ccccc2)C/C1=C\c1ccc(F)cc1 [Compound 34, 3,5-Bis[(E)-4-fluorobenzylidene]-4-oxo-N-phenylpiperidine-1-carboxamide]	31.25	7.48	13.78
O=C1/C(=C/c2ccc(F)cc2)CN(C(=O)Nc2ccc(Cl)cc2)C/C1=C\c1ccc(F)cc1 [Compound 35, N-(4-Chlorophenyl)-3,5-bis[(E)-4-fluorobenzylidene]-4-oxopiperidine-1-carboxamide]	14.75	6.07	6.88
COc1ccc(NC(=O)N2C/C(=C\c3ccc(F)cc3)C(=O)/C(=C/c3ccc(F)cc3)C2)cc1 [Compound 36, 3,5-Bis[(E)-4-fluorobenzylidene]-N-(4-methoxyphenyl)-4-oxopiperidine-1-carboxamide]	15.26	5.53	7.22
CCNC(=O)N1C/C(=C\c2ccc(F)cc2)C(=O)/C(=C/c2ccc(F)cc2)C1 [Compound 37, N-Ethyl-3,5-bis[(E)-4-fluorobenzylidene]-4-oxopiperidine-1-carboxamide]	17.16	4.22	8.29
O=C1/C(=C/c2ccc(F)cc2)CN(C(=O)NCc2ccccc2)C/C1=C\c1ccc(F)cc1 [Compound 38, N-Benzyl-3,5-bis[(E)-4-fluorobenzylidene]-4-oxopiperidine-1-carboxamide]	19.41	5.03	8.17
Cc1ccc(/C=C2\CN(C(=O)Nc3ccccc3)C/C(=C\c3ccc(C)cc3)C2=O)cc1 [Compound 39, 3,5-Bis[(E)-4-methylbenzylidene]-4-oxo-N-phenylpiperidine-1-carboxamide]	< 34.72	< 12.63	< 19.46
COc1ccc(NC(=O)N2C/C(=C\c3ccc(C)cc3)C(=O)/C(=C/c3ccc(C)cc3)C2)cc1 [Compound 40, N-(4-Methoxyphenyl)-3,5-bis[(E)-4-methylbenzylidene]-4-oxopiperidine-1-carboxamide]	< 18.32	< 9.80	< 10.20
CCNC(=O)N1C/C(=C\c2ccc(C)cc2)C(=O)/C(=C/c2ccc(C)cc2)C1 [Compound 41, N-Ethyl-3,5-bis[(E)-4-methylbenzylidene]-4-oxopiperidine-1-carboxamide]	8.37	4.13	7.16
Cc1ccc(/C=C2\CN(C(=O)NCc3ccccc3)C/C(=C\c3ccc(C)cc3)C2=O)cc1 [Compound 42, N-Benzyl-3,5-bis[(E)-4-methylbenzylidene]-4-oxopiperidine-1-carboxamide]	2.04	9.58	5.37
COc1ccc(/C=C2\CN(C(=O)Nc3ccccc3)C/C(=C\c3ccc(OC)cc3)C2=O)cc1 [Compound 43, 3,5-Bis[(E)-4-methoxybenzylidene]-4-oxo-N-phenylpiperidine-1-carboxamide]	< 40.65	< 12.63	< 18.38
COc1ccc(/C=C2\CN(C(=O)Nc3ccc(Cl)cc3)C/C(=C\c3ccc(OC)cc3)C2=O)cc1 [Compound 44, N-(4-Chlorophenyl)-3,5-bis[(E)-4-methoxybenzylidene]-4-oxopiperidine-1-carboxamide]	< 45.05	< 11.99	< 17.54
COc1ccc(/C=C2\CN(C(=O)Nc3ccc(OC)cc3)C/C(=C\c3ccc(OC)cc3)C2=O)cc1 [Compound 45, 3,5-Bis[(E)-4-methoxybenzylidene]-N-(4-methoxyphenyl)-4-oxopiperidine-1-carboxamide]	< 36.23	< 8.55	< 4.41
CCNC(=O)N1C/C(=C\c2ccc(OC)cc2)C(=O)/C(=C/c2ccc(OC)cc2)C1 [Compound 46, N-Ethyl-3,5-bis[(E)-4-methoxybenzylidene]-4-oxopiperidine-1-carboxamide]	31.81	8.33	5.40
COc1ccc(/C=C2\CN(C(=O)NCc3ccccc3)C/C(=C\c3ccc(OC)cc3)C2=O)cc1 [Compound 47, N-Benzyl-3,5-bis[(E)-4-methoxybenzylidene]-4-oxopiperidine-1-carboxamide]	< 38.76	< 10.22	< 6.27
COc1ccc(NC(=O)N2C/C(=C\c3cccs3)C(=O)/C(=C/c3cccs3)C2)cc1 [Compound 49, (3E,5E)-N-(4-Methoxyphenyl)-4-oxo-3,5-bis(thiophen-2-ylmethylene)piperidine-1-carboxamide]	< 1.22	< 2.03	–
CCNC(=O)N1C/C(=C\c2cccs2)C(=O)/C(=C/c2cccs2)C1 [Compound 50, (3E,5E)-N-Ethyl-4-oxo-3,5-bis(thiophen-2-ylmethylene)piperidine-1-carboxamide]	2.36	2.19	1.17
